The values below come from paper PMC10898606.

Amino acid sequences for entries named in this document (tags omitted).
UniProt O64490: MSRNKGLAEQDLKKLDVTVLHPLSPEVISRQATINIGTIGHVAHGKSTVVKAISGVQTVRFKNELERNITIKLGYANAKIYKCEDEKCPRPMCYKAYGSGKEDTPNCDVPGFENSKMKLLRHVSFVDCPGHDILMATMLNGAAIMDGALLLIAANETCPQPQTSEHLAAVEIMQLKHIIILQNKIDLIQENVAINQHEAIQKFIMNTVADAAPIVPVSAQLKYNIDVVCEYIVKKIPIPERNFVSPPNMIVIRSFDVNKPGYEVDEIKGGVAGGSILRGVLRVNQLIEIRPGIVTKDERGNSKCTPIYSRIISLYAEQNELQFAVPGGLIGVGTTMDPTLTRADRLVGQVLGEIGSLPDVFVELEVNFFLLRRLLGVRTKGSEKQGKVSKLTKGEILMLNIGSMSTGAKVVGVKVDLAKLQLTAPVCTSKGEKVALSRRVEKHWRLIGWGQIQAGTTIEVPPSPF

No constants are given. Whether binding was seen depends on the method and setting. In cells and extracts the contact can be indirect. Some binding calls cover weakened binding; strength is not graded here.

This test addresses eIF2γ-YFP (synthesized in vitro) (Arabidopsis thaliana) (UniProt O64490). The test can be described thus: co-IP; in vitro eIF2 assembly: proteins made separately in a wheat germ translation system, mixed in equal proportions with CDC123 (WT), CDC123-D251N or control, 1 hr at room temperature (with or without 10 mM ATPγS), diluted in IP buffer, IP with GFP-Trap or anti-myc beads at 4 °C.

B1: eIF2β (synthesized in vitro) (protein, UniProt Q41969 1-268)
chain: MADEINEIREEQEQLAPFDPSKKKKKKKVVIQEPVEDLAESSQTEKSDSLPVNDGLESSFTGMKKKKKKPTESSLLNNESVDAGEDLDEIANDEQEGEEGIVLQQRYPWEGSERDYIYDELLGRVFNILRENNPELAGDRRRTVMRPPQVLREGTKKTVFVNFMDLCKTMHRQPDHVMQYLLAELGTSGSLDGQQRLVVKGRFAPKNFEGILRRYITDYVICLGCKSPDTILSKENRLFFLRCEKCGSQRSVAPIKTGFVARVSRRKT
For B1, the binding result is on record as “binds”.
